Measured values taken from patent publication US20170227547A1 (Hoffmann-La Roche, published 2017).
No constants are given. Whether binding was seen depends on the method and setting. Some binding calls cover weakened binding; strength is not graded here.

What was measured:
human IL-12 [1] = biological target: T1, human IL-12 (human, UniProt P29459 23-219; P29460 23-328); experiment: IL-12 ELISA
T1 construct: also called interleukin 12
T1 sequence (looked up) 1: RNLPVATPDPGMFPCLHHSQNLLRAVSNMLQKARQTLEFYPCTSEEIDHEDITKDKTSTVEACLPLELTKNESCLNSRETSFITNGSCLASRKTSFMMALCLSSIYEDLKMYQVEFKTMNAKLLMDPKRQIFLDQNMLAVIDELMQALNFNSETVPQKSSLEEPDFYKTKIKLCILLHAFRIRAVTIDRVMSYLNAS
T1 sequence (looked up) 2: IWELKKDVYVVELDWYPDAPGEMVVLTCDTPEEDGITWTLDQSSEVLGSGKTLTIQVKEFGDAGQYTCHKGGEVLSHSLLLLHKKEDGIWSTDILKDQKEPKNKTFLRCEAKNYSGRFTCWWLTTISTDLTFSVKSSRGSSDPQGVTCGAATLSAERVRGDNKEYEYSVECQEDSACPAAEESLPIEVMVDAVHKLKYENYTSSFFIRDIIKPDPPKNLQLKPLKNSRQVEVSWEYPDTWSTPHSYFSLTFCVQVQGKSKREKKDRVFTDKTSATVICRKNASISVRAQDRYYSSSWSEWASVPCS

human IL-12 [2] = biological target: T1, human IL-12; experiment: IL-12 ELISA, absorbance against antibody concentration
human IL-12 [3] = biological target: T1, human IL-12; experiment: SPR, IL-12

Measured: binding

B1: Briakinumab (antibody, V domains shown)
VH: QVQLVESGGGVVQPGRSLRLSCAASGFTFSSYGMHWVRQAPGKGLEWVAFIRYDGSNKYYADSVKGRFTISRDNSKNTLYLQMNSLRAEDTAVYYCKTHGSHDNWGQGTMVTVSS
VL: QSVLTQPPSVSGAPGQRVTISCSGSRSNIGSNTVKWYQQLPGTAPKLLIYYNDQRPSGVPDRFSGSKSGTSASLAITGLQAEDEADYYCQSYDRYTHPALLFGTGTKVTVLG
notes: Fully human IgG1; also called ABT 874; J 695
binds: all assays above

B2: mAb 2 (antibody, V domains shown)
VH: B1 VH
VL: B1 VL
notes: Fv domain of Briakinumab on the Ustekinumab constant domains (IgG1)
binds: all assays above
